Source: PubChem BioAssay AID686943 (Drosophila RNAi Screening Center, 2013)

- Test: 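Knockdowns that increase or decrease active ERK after insulin receptor stimulation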 (primary screen)
- Cell system: Drosophila S2R+ haemocyte-like cells expressing YFP-tagged ERK (Rolled)
- Reagent: long dsRNA against Drosophila genes
- Treatment: insulin stimulation versus unstimulated cells; dose and duration not given
- Detection: 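Per-plate z-scores of phospho-ERK immunostaining normalised to YFP-tagged ERK, measured with and without insulin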
- Direction: replicate 1, z-score of dpERK with insulin and replicate 2, z-score of dpERK with insulin: higher = more active ERK per ERK-YFP after insulin
The screen tested about 23,000 reagents; this is a random part of those that have a named target and a result. 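Extra replicates exist only for a retested subset of genes; insulin dose and duration not given; both raised and lowered dpERK matter.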 Names joined by + are all predicted targets of the reagent. Not all columns of the deposit are shown. Not stated in the record: the amount of reagent, the time to read-out.

What is on record for CG11300 [DRSC04104]?
replicate 1, z-score of dpERK with insulin: -0.21; replicate 2, z-score of dpERK with insulin: -0.22

With Ttc19 [DRSC02474], how do the results read?
replicate 1, z-score of dpERK with insulin: -0.31; replicate 2, z-score of dpERK with insulin: -0.26

How did the screen score PHDP [DRSC04635]?
replicate 1, z-score of dpERK with insulin: -0.01; replicate 2, z-score of dpERK with insulin: -0.09

For Gr47b [DRSC05275], what was measured?
replicate 1, z-score of dpERK with insulin: 0.24; replicate 2, z-score of dpERK with insulin: -0.17

What did the screen give for CG10949 [DRSC02112]?
replicate 1, z-score of dpERK with insulin: 0.89; replicate 2, z-score of dpERK with insulin: -0.67

What is on record for Tsf3 [DRSC06849]?
replicate 1, z-score of dpERK with insulin: 0; replicate 2, z-score of dpERK with insulin: 0.17

What did the screen give for Tdrd3 [DRSC10016]?
replicate 1, z-score of dpERK with insulin: -0.27; replicate 2, z-score of dpERK with insulin: 0.44

What is on record for CG15927 [DRSC19742]?
replicate 1, z-score of dpERK with insulin: -0.46; replicate 2, z-score of dpERK with insulin: 0.02

With Or65b [DRSC08809], how do the results read?
replicate 1, z-score of dpERK with insulin: 0.38; replicate 2, z-score of dpERK with insulin: -0.04

What is on record for Naxd [DRSC09722]?
replicate 1, z-score of dpERK with insulin: -0.33; replicate 2, z-score of dpERK with insulin: -0.11

How did the screen score BORCS5 [DRSC19427]?
replicate 1, z-score of dpERK with insulin: 0.08; replicate 2, z-score of dpERK with insulin: 0.23

For VhaAC45 [DRSC07058], how do the results read?
replicate 1, z-score of dpERK with insulin: 1.03; replicate 2, z-score of dpERK with insulin: 1.05

How did the screen score Acsl [DRSC07252]?
replicate 1, z-score of dpERK with insulin: 0.4; replicate 2, z-score of dpERK with insulin: -0.32

For CG13721 [DRSC08330], what was measured?
replicate 1, z-score of dpERK with insulin: 0.06; replicate 2, z-score of dpERK with insulin: 0.43

With Cubn2 [DRSC10561], what was measured?
replicate 1, z-score of dpERK with insulin: 0.42; replicate 2, z-score of dpERK with insulin: 0.74

What did the screen give for Cubn2 [DRSC22044]?
replicate 1, z-score of dpERK with insulin: -0.44; replicate 2, z-score of dpERK with insulin: -0.45

With Syx8 [DRSC10402], how do the results read?
replicate 1, z-score of dpERK with insulin: 0.29; replicate 2, z-score of dpERK with insulin: -1.02

Which result is listed for Syx8 [DRSC22498]?
replicate 1, z-score of dpERK with insulin: -0.17; replicate 2, z-score of dpERK with insulin: -0.86

What did the screen give for Golgin104 [DRSC10459]?
replicate 1, z-score of dpERK with insulin: 0.31; replicate 2, z-score of dpERK with insulin: 0.54

Single entries from the list.
Syx8 [DRSC22498], replicate 2, z-score of dpERK with insulin → -0.86
Cubn2 [DRSC22044], replicate 1, z-score of dpERK with insulin: -0.44

The listing continues:
What is on record for D [DRSC11132]?
replicate 1, z-score of dpERK with insulin: 0.27; replicate 2, z-score of dpERK with insulin: 0.29

What is on record for Top1 [DRSC20295]?
replicate 1, z-score of dpERK with insulin: -1.38; replicate 2, z-score of dpERK with insulin: -2.78

Which result is listed for PIG-Wb [DRSC08526]?
replicate 1, z-score of dpERK with insulin: -0.56; replicate 2, z-score of dpERK with insulin: -0.04

With Topors [DRSC06531], what was measured?
replicate 1, z-score of dpERK with insulin: 1.84; replicate 2, z-score of dpERK with insulin: 1.47

For CG18367 [DRSC06545], how do the results read?
replicate 1, z-score of dpERK with insulin: 0.29; replicate 2, z-score of dpERK with insulin: 0.01

With Prdm13 [DRSC09970], what does the deposit list?
replicate 1, z-score of dpERK with insulin: -0.14; replicate 2, z-score of dpERK with insulin: -0.13

How did the screen score CG31715 [DRSC21607]?
replicate 1, z-score of dpERK with insulin: 1.75; replicate 2, z-score of dpERK with insulin: 0.82

For Pex11ab [DRSC07145], how do the results read?
replicate 1, z-score of dpERK with insulin: 0.28; replicate 2, z-score of dpERK with insulin: 0.39

For CG12391 [DRSC06147], what does the deposit list?
replicate 1, z-score of dpERK with insulin: -0.33; replicate 2, z-score of dpERK with insulin: 0.5

With CR32733 + CG32797 [DRSC17705], what was measured?
replicate 1, z-score of dpERK with insulin: 0.11; replicate 2, z-score of dpERK with insulin: 0.43

How did the screen score POSH [DRSC07499]?
replicate 1, z-score of dpERK with insulin: 1.01; replicate 2, z-score of dpERK with insulin: 1.1

How did the screen score zuc [DRSC02160]?
replicate 1, z-score of dpERK with insulin: 0; replicate 2, z-score of dpERK with insulin: -0.09
